Earlier results in article PMC7555276, “Using Ex Vivo Porcine Jejunum to Identify Membrane Transporter Substrates: A Screening Tool for Early—Stage Drug Development” (Biomedicines, 2020).

System: OCT1
Details: inhibitor of OCT1; cited from earlier work

## CN1[C@@H]2CC[C@H]1C[C@@H](OC(=O)C(CO)c1ccccc1)C2 (stereo partly shown) [Atropine]
  IC50: 1200 nM
